Values from PubChem BioAssay AID1224826 (NIAID, 2016)
Aim: 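Knock-downs that raise or lower Tnf reporter signal after endotoxin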 (primary screen). Cell system: RAW264.7 G9 macrophages from mouse bearing reporters for p65 (GFP) and the Tnf promoter (mCherry). Reagents: siRNA pool against mouse genes, 100 nM. Time to read-out: 16 h of LPS stimulation, after 2 days of siRNA transfection. Conditions: bacterial lipopolysaccharide (Salmonella minnesota R595), 10 ng/ml. Measured: 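Nuclear mCherry signal of the Tnf promoter reporter measured by imaging after background removal, scaled to each plate median and turned into robust z-scores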. Scale: Tnf reporter robust z-score: higher = stronger Tnf promoter reporter signal after LPS. Active means: 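Called active when robust z-score is at most -1.3, matching the median of the Tlr4 knock-down control, or over 3; control wells and wells with under 50 cells never active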. Meaning of the calls: active = Tnf reporter clearly lowered or raised; inactive = no clear change in Tnf reporter.
This is a random part of about 17,000 reagents tested. Over the whole deposit, about 1,110 (6.6%) are marked active. 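Active means lowered or raised reporter signal; replicate intensities are raw and not normalised per plate.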 Reagents against one gene are numbered here. Further read-outs or replicates are left out here.

{"gene knocked down": "Nemp2", "pool no.": 1, "Tnf reporter robust z-score": 0.36, "fewer than 50 cells in well": "enough cells in well", "Outcome": "inactive"}
{"gene knocked down": "Adgrg2", "pool no.": 1, "Tnf reporter robust z-score": 0.2, "fewer than 50 cells in well": "enough cells in well", "Outcome": "inactive"}
{"gene knocked down": "Ermap", "pool no.": 1, "Tnf reporter robust z-score": 1.43, "fewer than 50 cells in well": "enough cells in well", "Outcome": "inactive"}
{"gene knocked down": "Gsx1", "pool no.": 1, "Tnf reporter robust z-score": -0.52, "fewer than 50 cells in well": "enough cells in well", "Outcome": "inactive"}
{"gene knocked down": "Slc11a2", "pool no.": 1, "Tnf reporter robust z-score": 1.57, "fewer than 50 cells in well": "enough cells in well", "Outcome": "inactive"}
{"gene knocked down": "Ssrp1", "pool no.": 1, "Tnf reporter robust z-score": -0.72, "fewer than 50 cells in well": "enough cells in well", "Outcome": "inactive"}
{"gene knocked down": "Cntln", "pool no.": 1, "Tnf reporter robust z-score": 2.61, "fewer than 50 cells in well": "enough cells in well", "Outcome": "inactive"}
{"gene knocked down": "Cntln", "pool no.": 2, "Tnf reporter robust z-score": -0.35, "fewer than 50 cells in well": "enough cells in well", "Outcome": "inactive"}
{"gene knocked down": "Sumo2", "pool no.": 1, "Tnf reporter robust z-score": -0.93, "fewer than 50 cells in well": "enough cells in well", "Outcome": "inactive"}
{"gene knocked down": "Bcl2l1", "pool no.": 1, "Tnf reporter robust z-score": 1.22, "fewer than 50 cells in well": "enough cells in well", "Outcome": "inactive"}
{"gene knocked down": "Cep131", "pool no.": 1, "Tnf reporter robust z-score": 0.36, "fewer than 50 cells in well": "enough cells in well", "Outcome": "inactive"}
{"gene knocked down": "Snx24", "pool no.": 1, "Tnf reporter robust z-score": -0.73, "fewer than 50 cells in well": "enough cells in well", "Outcome": "inactive"}
{"gene knocked down": "Fam177a", "pool no.": 1, "Tnf reporter robust z-score": 3.95, "fewer than 50 cells in well": "enough cells in well", "Outcome": "active"}
{"gene knocked down": "Fez2", "pool no.": 1, "Tnf reporter robust z-score": -0.11, "fewer than 50 cells in well": "enough cells in well", "Outcome": "inactive"}
{"gene knocked down": "Dock8", "pool no.": 1, "fewer than 50 cells in well": "fewer than 50 cells per well; well left out of calls", "Outcome": "inactive"}
{"gene knocked down": "Dock8", "pool no.": 2, "Tnf reporter robust z-score": -0.06, "fewer than 50 cells in well": "enough cells in well", "Outcome": "inactive"}
{"gene knocked down": "Or2a25", "pool no.": 1, "Tnf reporter robust z-score": 1.83, "fewer than 50 cells in well": "enough cells in well", "Outcome": "inactive"}
{"gene knocked down": "Haglr", "pool no.": 1, "Tnf reporter robust z-score": 1.42, "fewer than 50 cells in well": "enough cells in well", "Outcome": "inactive"}
{"gene knocked down": "Il2ra", "pool no.": 1, "Tnf reporter robust z-score": -0.82, "fewer than 50 cells in well": "enough cells in well", "Outcome": "inactive"}
{"gene knocked down": "Plch1", "pool no.": 1, "Tnf reporter robust z-score": -0.77, "fewer than 50 cells in well": "enough cells in well", "Outcome": "inactive"}
{"gene knocked down": "A930037J23RIK", "pool no.": 1, "Tnf reporter robust z-score": -1.09, "fewer than 50 cells in well": "enough cells in well", "Outcome": "inactive"}
{"gene knocked down": "Or2a54", "pool no.": 1, "fewer than 50 cells in well": "fewer than 50 cells per well; well left out of calls", "Outcome": "inactive"}
{"gene knocked down": "Kcnh8", "pool no.": 1, "Tnf reporter robust z-score": 1.15, "fewer than 50 cells in well": "enough cells in well", "Outcome": "inactive"}
{"gene knocked down": "Apol9b", "pool no.": 1, "Tnf reporter robust z-score": -1.81, "fewer than 50 cells in well": "enough cells in well", "Outcome": "active"}
{"gene knocked down": "Dixdc1", "pool no.": 1, "Tnf reporter robust z-score": 3.52, "fewer than 50 cells in well": "enough cells in well", "Outcome": "active"}
{"gene knocked down": "Vash1", "pool no.": 1, "Tnf reporter robust z-score": 0.57, "fewer than 50 cells in well": "enough cells in well", "Outcome": "inactive"}
{"gene knocked down": "Tmem68", "pool no.": 1, "Tnf reporter robust z-score": -0.68, "fewer than 50 cells in well": "enough cells in well", "Outcome": "inactive"}

Entries listed above called active:
{"gene knocked down": "Fam177a", "pool no.": 1, "Tnf reporter robust z-score": 3.95, "fewer than 50 cells in well": "enough cells in well", "Outcome": "active"}
{"gene knocked down": "Apol9b", "pool no.": 1, "Tnf reporter robust z-score": -1.81, "fewer than 50 cells in well": "enough cells in well", "Outcome": "active"}
{"gene knocked down": "Dixdc1", "pool no.": 1, "Tnf reporter robust z-score": 3.52, "fewer than 50 cells in well": "enough cells in well", "Outcome": "active"}
